Patent US20040115666A1, “Method for identifying compounds modulating reverse cholesterol transport” (priority 2001, published 2004)
No constants are given. Whether binding was seen depends on the method and setting. Some binding calls cover weakened binding; strength is not graded here.

Molecular target: T1, mRXRα (mouse) (UniProt P28700)
T1 sequence (looked up): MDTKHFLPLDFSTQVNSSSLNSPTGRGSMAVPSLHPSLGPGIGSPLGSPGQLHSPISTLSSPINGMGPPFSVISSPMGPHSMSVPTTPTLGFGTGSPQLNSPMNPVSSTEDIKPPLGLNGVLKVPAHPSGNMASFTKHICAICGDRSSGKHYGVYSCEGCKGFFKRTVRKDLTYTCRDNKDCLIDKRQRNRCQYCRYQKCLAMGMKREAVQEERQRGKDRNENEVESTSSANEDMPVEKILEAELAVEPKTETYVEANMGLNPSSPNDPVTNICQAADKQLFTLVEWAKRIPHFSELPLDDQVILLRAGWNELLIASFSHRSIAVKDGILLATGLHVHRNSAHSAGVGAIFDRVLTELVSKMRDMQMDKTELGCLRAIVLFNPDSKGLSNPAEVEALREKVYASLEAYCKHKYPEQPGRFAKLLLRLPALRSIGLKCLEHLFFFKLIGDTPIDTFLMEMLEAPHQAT
Assay: gel shift (EMSA) with in vitro translated hFXR and mRXRα on labelled DNA probes of the apo A-I promoter

B1: hFXR (receptor, human, UniProt Q96RI1-2 1-472, looked up)
chain: MGSKMNLIEHSHLPTTDEFSFSENLFGVLTEQVAGPLGQNLEVEPYSQYSNVQFPQVQPQISSSSYYSNLGFYPQQPEEWYSPGIYELRRMPAETLYQGETEVAEMPVTKKPRMGASAGRIKGDELCVVCGDRASGYHYNALTCEGCKGFFRRSITKNAVYKCKNGGNCVMDMYMRRKCQECRLRKCKEMGMLAECLLTEIQCKSKRLRKNVKQHADQTVNEDSEGRDLRQVTSTTKSCREKTELTPDQQTLLHFIMDSYNKQRMPQEITNKILKEEFSAEENFLILTEMATNHVQVLVEFTKKLPGFQTLDHEDQIALLKGSAVEAMFLRSAEIFNKKLPSGHSDLLEERIRNSGISDEYITPMFSFYKSIGELKMTQEEYALLTAIVILSPDRQYIKDREAVEKLQEPLLDVLQKLCKIHQPENPQHFACLLGRLTELRTFNHHHAEMLMSWRVNDHKFTPLLCEIWDVQ
- binding: binds
